According to PubChem BioAssay AID504648 (National Center for Advancing Translational Sciences (NCATS), 2011):
In all, about 390,000 compounds went through this assay and about 610 (0.16%) were called active. The shares of active, inactive and inconclusive entries below differ from those in the screen. Calls follow the shape of the dose curve; as a rule, active = well fitted inhibition curve with a large enough effect; inconclusive = small, poorly fitted or top-dose-only effect, or effect the other way, or another doubt; inactive = no such curve, though single readings can be large or run the other way. Where the call is inconclusive, the potency comes from a doubtful curve fit.

Test: Nrf2 qHTS screen for inhibitors: counterscreen for cytotoxicity
Conditions: A549 ARE-Fluc cells, CellTiter-Fluor viability, 18-24 h; activity change, negative = cytotoxicity: at 46 µM (top of the series)
In short: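 Cytotoxicity counterscreen: CellTiter-Fluor fluorescence was measured in A549 ARE_Fluc cells after 18-24 h of compound exposure in a concentration series. The subsequent BugLite luminescent read reports ARE-luciferase activity.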
% is scaled to controls: 0 for no effect and ±100 for the full control effect; potency is read from the fitted curve at half-maximal effect.

SMILES | activity change, negative = cytotoxicity | Potency
O=S(=O)(NCCCSc1ccccc1)c1ccccc1F | inactive: -4.02% | –
COc1ccc2nc(NC(=O)c3nc(S(=O)(=O)Cc4ccccc4)ncc3Cl)sc2c1 | – | inconclusive: 23.1 µM [falling, partial curve, poor fit]
CC(C)(C)C(=O)Nc1ccc2c(c1)C(=O)C(=O)c1ccccc1-2 | – | inconclusive: 16.4 µM [falling, single point]
O=C(CSc1nnnn1C1CCCC1)NCCc1ccccc1 | – | inconclusive: 7.31 µM [falling, single point]
CCOc1ccc(-c2n[nH]c(C)c2Oc2ccccc2OC)c(O)c1 | – | inconclusive: 29.1 µM [falling, single point]
COc1ccc(OC)c(C(=O)c2c(C)oc3cc([N+](=O)[O-])c(O)c([N+](=O)[O-])c23)c1 | – | inconclusive: 25.9 µM [falling, partial curve, poor fit]
Cc1ccc(Nc2nc(N)c([N+](=O)[O-])c(NCc3ccco3)n2)cc1C | inactive: -20.4% | –
CCOc1ccc(OCC)c(NC(=O)C2CCN(S(=O)(=O)c3cn(C)cn3)CC2)c1 | inactive: 0.432% | –
CNC(=O)c1cc2c(=O)n3cccc(C)c3nc2n(C(C)C)c1=N | – | inconclusive: 29.1 µM [activator, single point]
Cc1ccn2c(Nc3ccc(F)cc3)c(-c3ccccn3)nc2c1 | – | inconclusive: 23.1 µM [falling, single point]
Cc1ccc(C(C)NC(=O)/C(C#N)=C\c2c(C)[nH]c3ccccc23)cc1 (stereo not given) | – | inconclusive: 25.9 µM [falling, single point]
CC[C@]12c3[nH]c4ccccc4c3CCN1C(=O)C(CC(=O)NCC13CC4CC(CC(C4)C1)C3)C[C@@H]2C(=O)N1CCN(C(=O)C2CC2)CC1 (stereo not given in full) | – | inconclusive: 20.6 µM [falling, partial curve, poor fit]
C=CCn1c(=S)[nH]c2cc(-c3ccccc3)sc2c1=O | – | inconclusive: 6.51 µM [falling, partial curve, poor fit]
COc1cccc(-c2nnc(NC(=O)c3ccc(S(=O)(=O)N(CC(C)C)CC(C)C)cc3)o2)c1 | – | inconclusive: 18.4 µM [falling, partial curve]
COc1cccc(-c2nnc(Nc3nc4c(F)cccc4s3)o2)c1 | inactive: -0.317% | –
CC(=O)Oc1cc2c(cc1Cl)C1(CC(c3ccccc3Cl)O2)CC(C)(C)NC(=S)N1 (stereo not given) | – | inconclusive: 23.1 µM [falling, partial curve, poor fit]
COc1cccc(CN(C)C(=O)c2cc(COc3ccc4ncccc4c3)on2)c1 | – | inconclusive: 3.26 µM [falling, partial curve, poor fit]
Cc1[nH]c2ccccc2c1/C=N/Nc1ccc([N+](=O)[O-])cc1 | – | inconclusive: 29.1 µM [falling, single point]
COc1ccc(/C=C2\CN(Cc3ccccc3)C/C(=C\c3ccc(OC)cc3OC)C2=O)c(OC)c1 | – | inconclusive: 32.6 µM [falling, partial curve, poor fit]
Cc1ccc2c(=O)cc(C(=O)Nc3ccc(S(=O)(=O)Nc4nc(C)cc(C)n4)cc3)oc2c1 | inactive: -1.16% | –
O=C(C1CCN(c2ncnc3c2nc2n3CCCCC2)CC1)N1CCN(c2ccc(F)cc2)CC1 | – | inactive
Cc1cccc(NC(=O)COC(=O)c2ccc(S(=O)(=O)N3CCCC3)cc2)c1 | inactive: -3.23% | –

Quoted from the listing.
For Potency, `CC[C@]12c3[nH]c4ccccc4c3CCN1C(=O)C(CC(=O)NCC13CC4CC(CC(C4)C1)C3)C[C@@H]2C(=O)N1CCN(C(=O)C2CC2)CC1` (stereo not given in full) is entered as inconclusive: 20.6 µM [falling, partial curve, poor fit]
For Potency, `Cc1[nH]c2ccccc2c1/C=N/Nc1ccc([N+](=O)[O-])cc1` is entered as inconclusive: 29.1 µM [falling, single point]
For Potency, `CC(C)(C)C(=O)Nc1ccc2c(c1)C(=O)C(=O)c1ccccc1-2` is entered as inconclusive: 16.4 µM [falling, single point]

Next records follow:

SMILES | activity change, negative = cytotoxicity | Potency
C[C@@H](c1ccccc1)N1Cc2ccccc2Oc2cc(Br)ccc2S1(=O)=O | – | inconclusive: 3.66 µM [activator, partial curve, poor fit]
CCc1ccc(C(=O)c2cncc(Br)c2)cc1 | inactive: -4.12% | –
CC1=C(C#N)C(c2cn(-c3ccccc3)nc2-c2cccs2)C(C#N)=C(C)N1 | inactive: 6.68% | –
COc1ccc(Cl)cc1NC(=O)CN1C(=O)COc2ccc(S(=O)(=O)NC3CCCC3)cc21 | – | inconclusive: 32.6 µM [falling, partial curve, poor fit]
CCCOc1cccc(C(=O)N(Cc2ccc(C)o2)C2CCS(=O)(=O)C2)c1 (stereo not given) | inactive: 4.49% | –
Cc1ccc(CNCCCn2cnc3c(OCc4ccccc4)ncnc32)o1 | – | inconclusive: 11.6 µM [activator, partial curve, poor fit]
CC(Nc1nc(-c2ccc(F)cc2)cs1)c1nc2cc(Cl)c(N3CCCCC3)cc2n1CCOCCO (stereo not given) | – | inconclusive: 29.1 µM [falling, single point]
COc1ccccc1NC(=O)NCCN1CCN(c2cccc(Cl)c2)CC1 | – | inconclusive: 10.3 µM [falling, partial curve, poor fit]
Brc1ccc(-c2cn3nc4c(nc3n2)CCCC4)cc1 | inactive: 0.294% | –
COCCN1C(=O)c2[nH]nc(-c3cc(C)ccc3O)c2C1c1ccc(C(C)C)cc1 (stereo not given) | – | inconclusive: 18.4 µM [falling, partial curve, poor fit]
COc1ccc(OC)c(NC(=O)c2c(NCc3cccs3)sc3c2CCCC3)c1 | – | inconclusive: 16.4 µM [falling, single point]
Cc1cncn1CCc1nc2c3ccccc3nc(SCC(=O)Nc3cccc(Cl)c3)n2n1 | – | active: 16.4 µM
N#C/C(=C\c1coc2ccc(O)cc2c1=O)C(=O)Nc1nc2ccccc2s1 | – | inconclusive: 10.3 µM [falling, partial curve, poor fit]
O=[N+]([O-])c1ccc(N/N=C/c2c[nH]c3ccccc23)c(S(=O)(=O)Nc2ccc(Cl)cc2)c1 | – | active: 20.6 µM
COc1ccc(N2CC(C(=O)N3CCC(c4nc5ccccc5[nH]4)CC3)CC2=O)cc1 (stereo not given) | – | inconclusive: 9.2 µM [falling, partial curve]
Cc1ccccc1OCC(O)Cn1c(=N)n(CCN2CCCCC2)c2ccccc21 (stereo not given) | – | inconclusive: 29.1 µM [falling, single point]
O=C(CSc1ccc(Cl)cc1)Nc1nnc(-c2ccco2)o1 | – | inconclusive: 13 µM [falling, partial curve, poor fit]
Cc1ccc(N/N=C(\C#N)C(N)=S)cc1C | – | inconclusive: 20.6 µM [falling, single point]
COC(=O)c1cc(C(=O)c2ccc(Cl)cc2)n2c(=O)/c(=C\N(C)C)sc12 | – | inconclusive: 4.61 µM [falling, partial curve, poor fit]
Fc1cccc(CNc2ncnc3cc(Cl)ccc23)c1F | inactive: -3.28% | –
Cc1ccc(-c2cc(C(=O)Nc3cnn(C45CC6CC(CC(C6)C4)C5)c3)no2)cc1 | – | inconclusive: 29.1 µM [falling, single point]
COc1ccc(S(=O)(=O)Cc2ccc(C(=O)N3CCN(c4cccc(C)c4)C(C)C3)o2)cc1 (stereo not given) | inactive: -5.95% | –

SMILES | activity change, negative = cytotoxicity | Potency
Cc1cccc(NCC(=O)N/N=C\c2c[nH]c3ccccc23)c1 | – | inconclusive: 20.6 µM [falling, partial curve, poor fit]
Cc1ccc2nc(N3C(=O)C(O)=C(C(=O)c4ccco4)C3c3cccc(O)c3)sc2c1 (stereo not given) | – | inconclusive: 16.4 µM [falling, partial curve]
CCc1nnc(NC(=O)/C=C/c2ccco2)s1 | – | inconclusive: 6.51 µM [falling, partial curve, poor fit]
CCCC(=O)Nc1nnc2n1CCS2 | inactive: 3.55% | –
CCOc1cc(/C=C/C(=O)c2ccc(C)cc2)ccc1OCC(=O)N(C)C | inactive: -0.974% | –
CCCc1nc2oc3c(NCCCN(C)C)ncnc3c2c2c1CCCC2 | – | inconclusive: 29.1 µM [falling, single point]
Cc1ccccc1OCc1nnc(SCCN2CCCC2)n1-c1ccccc1 | – | inconclusive: 29.1 µM [falling, single point]
O=C1N[C@@H](Cc2ccccc2)COC(=O)[C@@H](Cc2ccc(F)cc2)CC/C=C/C[C@@H]1CC(=O)N(CCO)Cc1ccccc1 | – | inconclusive: 20.6 µM [falling, single point]
CCOC(=O)c1c(NC(=O)CSc2nc3ccc(OC)cc3[nH]2)sc2c1CC(C)(C)NC2(C)C | – | inconclusive: 18.4 µM [falling, single point]
CCN1CCCC1CN(Cc1cc2ccc(C)c(C)c2[nH]c1=O)C(=O)Nc1ccccc1OC (stereo not given) | – | inconclusive: 29.1 µM [falling, single point]
CCn1ccnc1CN(C)Cc1cn(-c2ccc(C)cc2)nc1-c1ccc(F)cc1 | – | inconclusive: 20.6 µM [falling, single point]
Cc1c2ccncc2cc2c1[nH]c1ccccc12 | – | inconclusive: 25.9 µM [falling, partial curve, poor fit]
CCOC(=O)C(=CNc1ccc(Oc2cncc(Cl)c2)nc1)C(=O)OCC | inactive: -1.55% | –
CCCCCCc1c(O)nc(SCCN2CCOCC2)[nH]c1=O | – | inconclusive: 25.9 µM [activator, partial curve, poor fit]
CC(=O)c1ccc(N/N=C(/C(N)=O)C2=NC(C)(C)Cc3ccccc32)cc1 | – | inconclusive: 23.1 µM [falling, single point]
COc1ccc(CCNC(=O)c2cc3c(=O)n4ccccc4nc3n(CCCN3CCOCC3)c2=N)cc1OC | – | inconclusive: 20.6 µM [falling, partial curve, poor fit]
Cc1cc(C)n(-c2ccc(C(=O)Nc3cccnc3Cl)cc2)n1 | inactive: -8.91% | –
O=C1c2ccccc2C(=O)c2c1cccc2N1CCCC1 | – | inconclusive: 18.4 µM [falling, single point]
C#CCOc1ccc(-c2nnc(Nc3cccc(C)c3)c3ccccc23)cc1 | – | inconclusive: 32.6 µM [falling, single point]
Cc1cccc(Cn2c(=O)n(CCc3ccccc3)c(=O)c3c(C)c(C)sc32)c1 | inactive: 11.7% | –
O=S(=O)(c1ccccc1)N1CCN(Cc2ccccc2)c2ccccc21 | inactive: -0.656% | –
